Results published in PMC7819943, “Rice protein-binding microarrays: a tool to detect cis-acting elements near promoter regions in rice”.
The other results are listed elsewhere or left out.

By UniProt entry, the sequences of proteins in these tests, tags left out.
UniProt Q0JBA9, entry or part of it: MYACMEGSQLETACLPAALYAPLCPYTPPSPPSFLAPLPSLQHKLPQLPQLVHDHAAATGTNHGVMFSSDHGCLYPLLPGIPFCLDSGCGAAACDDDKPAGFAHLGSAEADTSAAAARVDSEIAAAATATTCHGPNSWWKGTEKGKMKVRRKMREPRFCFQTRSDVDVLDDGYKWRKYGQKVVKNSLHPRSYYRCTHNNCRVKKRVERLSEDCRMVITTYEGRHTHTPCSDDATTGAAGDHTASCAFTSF

Target: OsWRKY34 (Oryza sativa, UniProt Q0JBA9 1-250)
Experiment: protein-binding microarray (RPBM); PBS, 2% BSA, 51.3 ng/ul salmon testes DNA, 50 uM zinc acetate, 200 nM TF, 25 C, 1 h; high values mean tight binding
Settings: protein: recombinant; tags: N-terminal polyhistidine and DsRed monomer fusion (pET32a); label: CyDye5-dUTP incorporated in the synthesized complementary strand; 3' TTTTT single-stranded linker to array surface; dsDNA, one strand shown
In short: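 Transcription factors, each fused N-terminally to a polyhistidine tag and DsRed, were expressed in E. coli BL21-CodonPlus and purified on Ni–NTA. A custom Agilent array was made double-stranded by primer extension with Cy5-dUTP and blocked with 2% BSA. It was incubated with 200 nM protein in PBS, 2% BSA, salmon testes DNA and 50 µM zinc acetate at 25 °C for 1 h, then washed. The binding signal is per-feature fluorescence intensity (arbitrary units) read on an Axon 4000B scanner.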

Sequence	binding signal
TAGATTTGTTTTTTTATTTCTCCATGTATAAGTAGAGTTTCGGAGTCACCTAGTGCAG	9140 fluorescence intensity (a.u.)
ATATATGTTCTCTTAGTGTCTTTATTTTTAATATTTTTAACGGAGTCACCTAGTGCAG	8530 fluorescence intensity (a.u.)
AGAGTACTTTTGGGGTTACAAGTCAACATGAGTCAACACTCGGAGTCACCTAGTGCAG	8320 fluorescence intensity (a.u.)
TGGTTGGTTCTTGTGTGTTCCTAAGCATGAAAAAAAATATCGGAGTCACCTAGTGCAG	12600 fluorescence intensity (a.u.)
CCAACTCTGCGATTAGCGCTTCTCAATCCCACCTCGAGAACGGAGTCACCTAGTGCAG	8470 fluorescence intensity (a.u.)
ACTTATTCATTTTCTCTTATGCTCATCTGTACTTGGGCCGCGGAGTCACCTAGTGCAG	8150 fluorescence intensity (a.u.)
ATCTCCCCTCCCGCGAGCAGCGGCGGCCGGCGACCTGCTGCGGAGTCACCTAGTGCAG	13000 fluorescence intensity (a.u.)
TTGGTTTGCACTGGTTTTGATAGTTGAGGGACCTGTTGTACGGAGTCACCTAGTGCAG	8090 fluorescence intensity (a.u.)
AGCGTCTGGTATATCGCCTCGTTACAGCTTTATGTGGGTCCGGAGTCACCTAGTGCAG	8480 fluorescence intensity (a.u.)
ACAACCACCTGGCCATGACATCGATCATACTCTAAAATCCCGGAGTCACCTAGTGCAG	8660 fluorescence intensity (a.u.)
CCCACCTTCTTACCGTAGCCCGCCCCTCGCGGCGTATAAACGGAGTCACCTAGTGCAG	9440 fluorescence intensity (a.u.)
TCTTCTTTCCTTTCTTTATTTCTCCCTTGCCTTGTTCGGCCGGAGTCACCTAGTGCAG	9530 fluorescence intensity (a.u.)
TCGAACTAGTCACTTACTCATTTGATTCTCTGTTAGTCTGCGGAGTCACCTAGTGCAG	9250 fluorescence intensity (a.u.)
GAAATAGAGATGTGGAGCCCCTGTTCACCAAACTTTCCATCGGAGTCACCTAGTGCAG	8100 fluorescence intensity (a.u.)
GTCCACGCGGCGCGCCGCGGTTGACCCGCGTTGCCTCTCGCGGAGTCACCTAGTGCAG	8590 fluorescence intensity (a.u.)
ATTCCTTTCTTCTCTCTATCCTCTCTGGCCCTGCGCGTATCGGAGTCACCTAGTGCAG	8110 fluorescence intensity (a.u.)
AACTCTGTCTCTCCTCTGCCTCAGCTCTGTTTCTCTTCGTCGGAGTCACCTAGTGCAG	14200 fluorescence intensity (a.u.)
AGATCACGTGGGCCGCACGTTGCGTTGCAGTCCAATTTCACGGAGTCACCTAGTGCAG	8600 fluorescence intensity (a.u.)
TTGCTTTGGTTTGGTTGGAGAAGGCATCAGCCTCAAGCCACGGAGTCACCTAGTGCAG	8380 fluorescence intensity (a.u.)
GAGGGGAGGGTTATGAGAGTGAATTTTTTTTTATCATCTTCGGAGTCACCTAGTGCAG	8460 fluorescence intensity (a.u.)
TCGTATAGTGTGTGATAATGCGTATGACTAGTGCTTGTTTCGGAGTCACCTAGTGCAG	11400 fluorescence intensity (a.u.)
GAGATCTCCCTGGTGAGCTTGTTGTTCTTCTTCAGTTCTTCGGAGTCACCTAGTGCAG	9910 fluorescence intensity (a.u.)
GGTCGGGGTGGTCGTGCACGAGAGGGAATTTCCAGCGCTGCGGAGTCACCTAGTGCAG	11700 fluorescence intensity (a.u.)
AACACATGGGCCCTGCCATTTTTACTATTCTATGTGTGTACGGAGTCACCTAGTGCAG	10300 fluorescence intensity (a.u.)
ATACGCCTTTTAACCCTAGTATCTATGCCGAAAGCATTTTCGGAGTCACCTAGTGCAG	8090 fluorescence intensity (a.u.)
CTCCGACTCTTGCCTCGGCCTCGACCGACTCTCCCGTCTCCGGAGTCACCTAGTGCAG	10300 fluorescence intensity (a.u.)
ATTTTGTTCTTTCTTGTTCTGACTTTTTTTCATAGTTTTACGGAGTCACCTAGTGCAG	10400 fluorescence intensity (a.u.)

Sequence	binding signal
ATCGGGCCGTCCATCCATCTCGCGTCACACGGTCCACCACCGGAGTCACCTAGTGCAG	8320 fluorescence intensity (a.u.)
ACTCGCGCCCTCACGCCCAAACCGAGCGAAATCGGTTCCCCGGAGTCACCTAGTGCAG	9360 fluorescence intensity (a.u.)
AGGGAGCTATACTTGTCGGTTCAGTTTTCCAGATCATTTTCGGAGTCACCTAGTGCAG	9410 fluorescence intensity (a.u.)
GTCCACCACCACCGCGACACCCTTCTCCATGGAGGACTACCGGAGTCACCTAGTGCAG	8090 fluorescence intensity (a.u.)
CCTACGTGTTCGACGGAATGCCCAAGCCGTTTCACCCCTGCGGAGTCACCTAGTGCAG	8420 fluorescence intensity (a.u.)
TTATTCAGCCAATTAACGTCGTCGATCCATGTCACTGACCCGGAGTCACCTAGTGCAG	8190 fluorescence intensity (a.u.)
TAGCCGCGTACATCTCCGGGTTCACCGGGTTCCACGAGTTCGGAGTCACCTAGTGCAG	8160 fluorescence intensity (a.u.)
TGCTTTCGTTGGGTTGGGGAAGGGGAGGCGTCGCTTGGTCCGGAGTCACCTAGTGCAG	17100 fluorescence intensity (a.u.)
CTTTTGTTTCTTTTGATTGCCCGTTCTGAAAGTGATAAACCGGAGTCACCTAGTGCAG	9270 fluorescence intensity (a.u.)
CTCGTGAACCCGCGGCCTTGCTCTCGTCTCGCCCTGGCGTCGGAGTCACCTAGTGCAG	10000 fluorescence intensity (a.u.)
CTTTTTTAAACATGTTTGACCGTTCGTCTTATTTAAAAAACGGAGTCACCTAGTGCAG	9350 fluorescence intensity (a.u.)
ATGTTTTAATTTTGGGCTTCTTTTTGTTTTGGGCTTTTATCGGAGTCACCTAGTGCAG	24300 fluorescence intensity (a.u.)
TGTGGGTTGGAGGGAGGAGGGGATTGAAGGGTTGTTAATTCGGAGTCACCTAGTGCAG	14900 fluorescence intensity (a.u.)
GCGGCCCGTCCTCTCCAATCGCTCTGCCGCCGCTTGCGCCCGGAGTCACCTAGTGCAG	11400 fluorescence intensity (a.u.)
TCATTTTTGGCCTTTTTTGGCTGTCTGTTCGGTTTTTTTTCGGAGTCACCTAGTGCAG	11300 fluorescence intensity (a.u.)
ACCCCGGCATTGCTCTGCCCGTACACAAACTACCACACTACGGAGTCACCTAGTGCAG	9520 fluorescence intensity (a.u.)
GCATTAGAACGAGCGCACCCACTTTCAGTTCTCAAATTATCGGAGTCACCTAGTGCAG	8670 fluorescence intensity (a.u.)
ACCTTCGTCCTCGTCGCGCTCTACTACTACCGCTGCACGGCGGAGTCACCTAGTGCAG	13000 fluorescence intensity (a.u.)
GTGTTTATGCATGTCAGTAGTTTTAGTACAAGCAATTGTCCGGAGTCACCTAGTGCAG	8500 fluorescence intensity (a.u.)
TGTGCTTCTCCACCTGTTGTTCCATTTTCTCCTCGCTTATCGGAGTCACCTAGTGCAG	13900 fluorescence intensity (a.u.)
ATACCACATGTCATCTCCGTCGACATCTTTGATTTTGCATCGGAGTCACCTAGTGCAG	8140 fluorescence intensity (a.u.)
TGTATCCTCCCGTGCATCGGACCTCGGTTGACAAGCAGTTCGGAGTCACCTAGTGCAG	9860 fluorescence intensity (a.u.)
GCGCGGTTCACACTTCACACGCTCTTGCAAGTGATTTGCACGGAGTCACCTAGTGCAG	9600 fluorescence intensity (a.u.)
ATTTGCTCCACAGAATCTTCGTCTACCTGCAGTCCCGTCGCGGAGTCACCTAGTGCAG	8900 fluorescence intensity (a.u.)
ACCACCTTGTCCCGTGCCGTCCTCATGCGGCGCGAGCTTTCGGAGTCACCTAGTGCAG	10700 fluorescence intensity (a.u.)
CCCGGCCTTAAGTTGTTTCTTCCCTATCAGCTCAGGTCTCCGGAGTCACCTAGTGCAG	8520 fluorescence intensity (a.u.)
GGTGGGCAGGTGTCAGAGACAAGGGGCGGACTGATTTGTACGGAGTCACCTAGTGCAG	12300 fluorescence intensity (a.u.)

Reprinted at random: 4 entries already listed, in no set order.
Sequence	binding signal
CTTTTTTAAACATGTTTGACCGTTCGTCTTATTTAAAAAACGGAGTCACCTAGTGCAG	9350 fluorescence intensity (a.u.)
CCTACGTGTTCGACGGAATGCCCAAGCCGTTTCACCCCTGCGGAGTCACCTAGTGCAG	8420 fluorescence intensity (a.u.)
GAGATCTCCCTGGTGAGCTTGTTGTTCTTCTTCAGTTCTTCGGAGTCACCTAGTGCAG	9910 fluorescence intensity (a.u.)
CTCGTGAACCCGCGGCCTTGCTCTCGTCTCGCCCTGGCGTCGGAGTCACCTAGTGCAG	10000 fluorescence intensity (a.u.)
